PubChem BioAssay AID652259 | Drosophila RNAi Screening Center – 2013

- Aim: 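Genome-wide hunt for genes that control Wingless pathway activity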 (primary screen)
- Cell system: Drosophila clone 8 imaginal disc epithelial cells
- Reagents: long dsRNA against Drosophila genes
- Treatment: pathway stimulated by co-transfected Wingless expression plasmid
- Detection: 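Dual luciferase reads per well after Wingless plasmid stimulation: reporter firefly light and Renilla control light; activity is firefly divided by Renilla, a ratio not deposited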
- Reading the numbers: firefly reporter light: higher = more Wg reporter light, before normalisation; Renilla control light: higher = more transfected or surviving cells
- Rule for the call: 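Strong candidates differ from their plate mean by at least two out of four per-plate statistical tests; weak candidates meet just one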
- Calls: active = candidate regulator (raises or lowers reporter); inactive = not a candidate
In all, the deposit lists about 22,000 reagents; this is an unselected part of those with a known target gene and a result. In the full data, 233 (1.1%) were called active. 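Light values are raw, unnormalised plate reads; the ratio scores behind the reporter calls were not deposited.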 A number with no mark means an inactive call. A plus sign joins genes that one reagent is predicted to hit. Not stated in the record: the amount of reagent, the time to read-out, the dose of the treatment.

firefly reporter light, replicate 1 | firefly reporter light, replicate 2 | Renilla control light, replicate 1 | Renilla control light, replicate 2 | target | dsRNA
3458 | 9384 | 1540 | 4426 | PolG1 (DNA polymerase gamma subunit 1) | DRSC03621
13330 | – | 3441 | – | Tim10 + CG42497 | DRSC04664
7307 | – | 4746 | – | Nepl5 (Neprilysin-like 5) | DRSC03241
20187 | – | 10647 | – | if (inflated) | DRSC20341
16496 | – | 4731 | – | Wdr59 (WD repeat domain 59) | DRSC02771
22034 | – | 10128 | – | Hexo2 (Hexosaminidase 2) | DRSC18671
9286 | – | 2676 | – | CG14609 | DRSC12553
2804 | – | 912 | – | M1BP (Motif 1 Binding Protein) | DRSC16566
2044 | – | 1079 | – | Srg2 (Sting-regulated gene 2) | DRSC10681
17910 | – | 5433 | – | Ten-m (Tenascin major) | DRSC11664
16048 | – | 4774 | – | Ten-m (Tenascin major) | DRSC11882
8034 | – | 1675 | – | CG1688 | DRSC05934
2989 | 6034 | 804 | 2668 | PCNA2 (Proliferating cell nuclear antigen 2) | DRSC02030
3257 | – | 1498 | – | dally (division abnormally delayed) | DRSC08954
2609 | – | 1288 | – | dally (division abnormally delayed) | DRSC11338
20640 | – | 11188 | – | Tdc1 (Tyrosine decarboxylase 1) | DRSC04942
17655 | – | 7798 | – | CG31735 | DRSC01518
2840 | – | 1161 | – | dop (drop out) | DRSC10655
7449 | – | 2880 | – | CG6293 | DRSC16011
3157 | – | 1321 | – | Mos (Mos oncogene) | DRSC07258
3059 | 3721 | 1584 | 624 | alpha-Man-Ib (alpha-Mannosidase class I b) | DRSC14418
14005 | – | 2770 | – | Vha100-4 (Vacuolar H[+] ATPase 100kD subunit 4) | DRSC16282
10475 | – | 4281 | – | CG6066 | DRSC15959
1.02e6 | 9.13e5 | 5.16e5 | 4.95e5 | CG6066 | DRSC22228
16187 | – | 4320 | – | Ubc87F (Ubiquitin conjugating enzyme 87F) | DRSC16513
3427 | – | 1218 | – | Sp1 | DRSC17622
24000 | – | 9065 | – | Sp1 | DRSC18717
5013 | 9696 | 1318 | 4419 | CG10348 | DRSC02043
4.25e5 | 4.59e5 | 1.22e5 | 1.26e5 | CG10348 | DRSC21908
13888 | – | 7424 | – | CG16723 | DRSC15138
17556 | – | 16410 | – | sav (salvador) | DRSC14681
15691 | – | 12960 | – | sav (salvador) | DRSC14682
4410 | – | 1785 | – | CG8135 + BBIP1 | DRSC12739
12230 | – | 3579 | – | CG8135 + BBIP1 | DRSC16384
19898 | – | 4427 | – | CG5697 | DRSC15858

7 entries already listed, arranged by “firefly reporter light, replicate 1”, low to high.
firefly reporter light, replicate 1 | firefly reporter light, replicate 2 | Renilla control light, replicate 1 | Renilla control light, replicate 2 | target | dsRNA
2044 | – | 1079 | – | Srg2 (Sting-regulated gene 2) | DRSC10681
2804 | – | 912 | – | M1BP (Motif 1 Binding Protein) | DRSC16566
8034 | – | 1675 | – | CG1688 | DRSC05934
9286 | – | 2676 | – | CG14609 | DRSC12553
16048 | – | 4774 | – | Ten-m (Tenascin major) | DRSC11882
17910 | – | 5433 | – | Ten-m (Tenascin major) | DRSC11664
22034 | – | 10128 | – | Hexo2 (Hexosaminidase 2) | DRSC18671

The listing continues:
firefly reporter light, replicate 1 | firefly reporter light, replicate 2 | Renilla control light, replicate 1 | Renilla control light, replicate 2 | target | dsRNA
8316 | – | 4246 | – | LKRSDH (Lysine ketoglutarate reductase/saccharopine dehydrogenase) | DRSC03015
5689 | – | 2483 | – | Targ (Tarag) | DRSC06206
2258 | – | 1561 | – | CG8861 | DRSC12731
12976 | – | 2464 | – | CG8861 | DRSC16449
1529 | 5206 | 1138 | 1922 | CG13311 | DRSC09982
11493 | – | 3296 | – | mRpS18C (mitochondrial ribosomal protein S18C) | DRSC16538
3338 | 7460 | 986 | 3649 | Nse4 (Non-SMC element 4) | DRSC02239
13634 | – | 3107 | – | CG34409 | DRSC14577
5.77e5 | 6.88e5 | 3.75e5 | 2.95e5 | CG34409 | DRSC21667
2704 | 6754 | 1000 | 2714 | PhKgamma (Phosphorylase kinase gamma) | DRSC20268
9917 | – | 3765 | – | RpS11 (Ribosomal protein S11) | DRSC07289
5.52e5 | 6.07e5 | 2.12e5 | 1.83e5 | RpS11 (Ribosomal protein S11) | DRSC22700
6.84e5 | 6.95e5 | 2.74e5 | 2.62e5 | CG31301 | DRSC22164
4725 | – | 1511 | – | fwe (flower) | DRSC09398
6282 | – | 2132 | – | fwe (flower) | DRSC10594
4.27e5 | 3.75e5 | 1.62e5 | 1.06e5 | fwe (flower) | DRSC21400
17156 | – | 14707 | – | Trmt61 (tRNA methyltransferase 61) | DRSC14888
13378 | – | 2842 | – | js (jiangshi) | DRSC15004
8427 | – | 2384 | – | Zip48C (Zinc/iron regulated transporter-related protein 48C) | DRSC06314
1523 | 8304 | 672 | 1786 | ebo (ellipsoid body open) | DRSC18787
5303 | – | 1392 | – | Lgr4 (Leucine-rich repeat-containing G protein-coupled receptor 4) | DRSC18969
2870 | – | 354 | – | Lgr4 (Leucine-rich repeat-containing G protein-coupled receptor 4) | DRSC18970
20181 | – | 10077 | – | Lgr4 (Leucine-rich repeat-containing G protein-coupled receptor 4) | DRSC19884
11511 | – | 2955 | – | Nadk2 (NAD kinase 2, mitochondrial) | DRSC07072
1529 | 5633 | 806 | 2322 | CG9928 | DRSC03274
15510 | – | 3514 | – | CG14695 | DRSC14918
7636 | – | 3555 | – | BomT2 (Bomanin Tailed 2) | DRSC06631
4491 | – | 1437 | – | Hex-C (Hexokinase C) | DRSC07079
3.10e5 | 3.10e5 | 1.48e5 | 1.50e5 | CG31103 | DRSC22324
14221 | – | 5190 | – | CG5597 | DRSC04517
3785 | 9340 | 1346 | 2202 | Syx18 (Syntaxin 18) | DRSC14628
12027 | – | 2996 | – | CG18622 | DRSC15360
2472 | 4901 | 1030 | 2667 | Tsp33B (Tetraspanin 33B) | DRSC02418
14755 | – | 13016 | – | CG14427 | DRSC17921
25524 | – | 16512 | – | fz3 (frizzled 3) | DRSC18779
25076 | – | 1356 | – | Obp19d (Odorant-binding protein 19d) | DRSC20569
11009 | – | 2588 | – | neb (nebbish) | DRSC03577
4530 | – | 3864 | – | CG31064 | DRSC14756
7648 | – | 2648 | – | CG31064 | DRSC15941
6371 | – | 2365 | – | CG31064 | DRSC15942
8950 | – | 1815 | – | CG31064 | DRSC15943
